Reference: article PMC6608980, “The lectin-specific activity of Toxoplasma gondii microneme proteins 1 and 4 binds Toll-like receptor 2 and 4 N-glycans to regulate innate immune priming” (PLoS Pathogens, 2019)
These are yes or no findings as the source states them, for the method shown. Some results given as binding are weak or reduced against the parent protein; the word gives no strength. For part of these data: Where a sequence is shown, tags or fusion partners need not be part of it.

Chains of the proteins cited; added tags and fusions are not shown. Residues count along the entry.
UniProt O00834, residues 17-456: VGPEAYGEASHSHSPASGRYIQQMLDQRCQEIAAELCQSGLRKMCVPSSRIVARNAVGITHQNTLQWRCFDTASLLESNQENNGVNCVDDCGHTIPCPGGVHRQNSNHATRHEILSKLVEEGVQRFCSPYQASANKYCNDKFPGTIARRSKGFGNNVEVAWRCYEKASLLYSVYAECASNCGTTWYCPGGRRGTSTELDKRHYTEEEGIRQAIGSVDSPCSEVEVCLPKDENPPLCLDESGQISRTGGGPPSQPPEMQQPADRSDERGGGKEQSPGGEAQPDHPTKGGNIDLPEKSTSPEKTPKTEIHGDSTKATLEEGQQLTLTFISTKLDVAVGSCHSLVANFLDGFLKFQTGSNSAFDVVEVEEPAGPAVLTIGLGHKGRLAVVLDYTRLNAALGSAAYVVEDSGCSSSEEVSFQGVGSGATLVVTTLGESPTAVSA

Assays:
[1] = target: T1, native MIC4 of the Lac+ fraction (Toxoplasma gondii (endogenous in tachyzoites)) (UniProt Q9XZH7); experiment: affinity chromatography on a lactose column; total soluble tachyzoite antigen (STAg) loaded on a lactose column in PBS with 0.5 M NaCl; eluted with 0.1 M lactose (Lac+ fraction)
T1 sequence: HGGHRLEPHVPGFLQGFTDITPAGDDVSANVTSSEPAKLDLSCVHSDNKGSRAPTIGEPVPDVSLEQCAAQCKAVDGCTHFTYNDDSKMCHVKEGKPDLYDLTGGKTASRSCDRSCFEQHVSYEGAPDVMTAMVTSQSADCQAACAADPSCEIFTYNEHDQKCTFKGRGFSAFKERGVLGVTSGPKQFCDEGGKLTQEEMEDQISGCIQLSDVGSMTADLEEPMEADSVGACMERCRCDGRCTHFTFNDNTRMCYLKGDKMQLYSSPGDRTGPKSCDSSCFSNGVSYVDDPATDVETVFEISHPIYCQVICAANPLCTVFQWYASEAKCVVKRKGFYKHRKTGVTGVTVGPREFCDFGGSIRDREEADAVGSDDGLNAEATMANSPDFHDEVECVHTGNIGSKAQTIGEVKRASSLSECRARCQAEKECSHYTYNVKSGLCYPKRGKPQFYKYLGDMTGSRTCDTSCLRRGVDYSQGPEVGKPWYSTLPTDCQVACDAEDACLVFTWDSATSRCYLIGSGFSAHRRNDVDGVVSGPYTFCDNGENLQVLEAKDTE

fetuin = target: T2, fetuin (UniProt P12763); experiment: ELISA; microplates coated with 1 ug/well fetuin or asialofetuin (carbonate buffer pH 9.6, overnight 4°C); rMIC added for 2 h at 25°C, with or without pre-incubation with sugar; detected with serum of T. gondii-infected mice; absorbance at 450 nm; both purified
T2 sequence (chain, glycoprotein with sialic acid): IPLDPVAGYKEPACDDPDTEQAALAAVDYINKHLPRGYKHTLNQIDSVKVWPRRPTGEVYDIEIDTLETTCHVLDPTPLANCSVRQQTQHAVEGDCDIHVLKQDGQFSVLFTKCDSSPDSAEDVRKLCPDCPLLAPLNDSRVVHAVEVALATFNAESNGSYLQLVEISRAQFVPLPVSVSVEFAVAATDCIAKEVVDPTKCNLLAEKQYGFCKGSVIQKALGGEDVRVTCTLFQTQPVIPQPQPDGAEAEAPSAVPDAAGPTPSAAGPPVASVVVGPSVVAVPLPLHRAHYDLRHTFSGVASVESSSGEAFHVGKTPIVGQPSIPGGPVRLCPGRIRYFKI

asialofetuin = target: T3, asialofetuin (UniProt P12763); experiment: as above
T3 sequence (chain, glycoprotein without sialic acid): T2 sequence (chain, glycoprotein with sialic acid)

Molecule: native MIC1 of the Lac+ fraction (from UniProt O00834 17-456)
- binding [1]: binds

Molecule: recombinant MIC1 (Toxoplasma gondii microneme protein 1), His-tagged (from UniProt O00834 17-456)
- binding (fetuin): binds

B1: recombinant MIC4 (Toxoplasma gondii microneme protein 4), His-tagged (protein, UniProt Q9XZH7 26-580)
chain: T1 sequence
- binding (asialofetuin): binds
